The assay has as its target FLAG-PfATG8 (Plasmodium falciparum) (UniProt Q8IJK2). In words: AlphaScreen or HTRF; AlphaScreen: 0.5 µL biotin-ATG3 and 0.125 µL FLAG-ATG8 (total fractions of wheat germ translation mixtures) in 100 mM Tris-HCl pH 8.0, 0.1% Tween-20, 1 mg/mL BSA, 26 °C 1 h; streptavidin donor beads, protein A acceptor beads with anti-FLAG M2 antibody. (Alpha assays give light when donor and acceptor beads are brought close together.)

Chains of the proteins cited; added tags and fusions are not shown. Residues count along the entry.
UniProt Q8IJK2, residues 1-118: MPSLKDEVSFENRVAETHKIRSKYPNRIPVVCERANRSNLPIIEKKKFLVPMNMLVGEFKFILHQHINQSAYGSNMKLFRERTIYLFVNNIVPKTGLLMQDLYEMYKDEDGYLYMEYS
UniProt C0H519: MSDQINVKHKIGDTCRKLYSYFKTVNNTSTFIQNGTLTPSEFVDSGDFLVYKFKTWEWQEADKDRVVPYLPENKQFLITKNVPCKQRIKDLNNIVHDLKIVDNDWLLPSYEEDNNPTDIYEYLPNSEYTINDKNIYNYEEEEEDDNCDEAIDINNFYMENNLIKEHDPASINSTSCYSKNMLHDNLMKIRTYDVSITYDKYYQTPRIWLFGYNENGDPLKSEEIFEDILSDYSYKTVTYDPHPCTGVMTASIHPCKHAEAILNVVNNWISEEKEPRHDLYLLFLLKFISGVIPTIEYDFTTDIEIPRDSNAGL

Results are given in words; binding and its absence hold for the method and conditions named. Some results given as binding are weak or reduced against the parent protein; the word gives no strength.

In the case of “biotin-PfATG3 (from UniProt C0H519 1-313)”, the binding entry is recorded as “binds”.

The values are drawn from article PMC11764061.
